Measured values reported in the supplement of paper PMC11732987, “Enantioselective OTUD7B fragment discovery through chemoproteomics screening and high-throughput optimisation” (Communications Chemistry, 2025).
Some of the results follow. The data scatter; read single values as rough.

The chains behind the UniProt entries cited, without tags or fusion partners. Where a name states a change or a piece, a line headed by the entry shows the natural chain unless it says otherwise. Residues count along the entry.
UniProt O15381: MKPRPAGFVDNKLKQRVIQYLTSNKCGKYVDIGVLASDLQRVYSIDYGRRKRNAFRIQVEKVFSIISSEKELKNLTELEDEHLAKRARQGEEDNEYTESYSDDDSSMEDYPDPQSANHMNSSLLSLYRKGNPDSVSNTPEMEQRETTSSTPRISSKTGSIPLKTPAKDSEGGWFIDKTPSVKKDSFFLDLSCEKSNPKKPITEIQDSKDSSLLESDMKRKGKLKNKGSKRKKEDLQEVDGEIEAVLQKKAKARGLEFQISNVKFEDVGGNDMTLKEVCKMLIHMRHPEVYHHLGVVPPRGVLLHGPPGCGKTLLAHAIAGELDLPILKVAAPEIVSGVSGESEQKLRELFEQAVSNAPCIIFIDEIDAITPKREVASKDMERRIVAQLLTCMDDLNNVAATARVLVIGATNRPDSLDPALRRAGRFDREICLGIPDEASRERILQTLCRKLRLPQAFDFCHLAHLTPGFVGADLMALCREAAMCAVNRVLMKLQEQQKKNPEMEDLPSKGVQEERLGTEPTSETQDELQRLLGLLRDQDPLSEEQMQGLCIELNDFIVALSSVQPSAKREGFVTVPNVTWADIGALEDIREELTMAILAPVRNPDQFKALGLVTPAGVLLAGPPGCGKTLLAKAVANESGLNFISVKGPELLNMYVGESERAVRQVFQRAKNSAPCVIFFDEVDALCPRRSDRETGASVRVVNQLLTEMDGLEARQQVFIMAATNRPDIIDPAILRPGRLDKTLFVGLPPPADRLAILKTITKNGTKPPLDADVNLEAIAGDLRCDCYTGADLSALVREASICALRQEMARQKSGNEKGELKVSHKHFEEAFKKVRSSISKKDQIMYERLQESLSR
UniProt P53384, 30-49: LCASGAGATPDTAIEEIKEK
UniProt Q96L73, 794-813: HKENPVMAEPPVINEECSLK
UniProt Q9H4B0, 38-74: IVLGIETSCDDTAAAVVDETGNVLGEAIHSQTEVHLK
UniProt Q9BVL2, 241-260: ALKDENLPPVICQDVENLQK
UniProt Q96P11: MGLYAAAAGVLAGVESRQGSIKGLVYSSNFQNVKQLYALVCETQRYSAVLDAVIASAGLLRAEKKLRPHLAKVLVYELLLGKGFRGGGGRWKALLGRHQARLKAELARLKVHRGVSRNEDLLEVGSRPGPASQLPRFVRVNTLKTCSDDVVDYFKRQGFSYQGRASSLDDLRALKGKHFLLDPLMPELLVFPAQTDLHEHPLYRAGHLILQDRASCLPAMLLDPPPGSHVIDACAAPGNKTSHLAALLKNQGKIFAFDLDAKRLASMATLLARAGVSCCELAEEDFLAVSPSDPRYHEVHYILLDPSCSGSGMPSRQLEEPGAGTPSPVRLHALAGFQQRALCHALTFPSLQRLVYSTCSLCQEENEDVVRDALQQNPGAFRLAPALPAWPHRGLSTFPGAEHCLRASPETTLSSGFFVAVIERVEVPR
UniProt Q12769: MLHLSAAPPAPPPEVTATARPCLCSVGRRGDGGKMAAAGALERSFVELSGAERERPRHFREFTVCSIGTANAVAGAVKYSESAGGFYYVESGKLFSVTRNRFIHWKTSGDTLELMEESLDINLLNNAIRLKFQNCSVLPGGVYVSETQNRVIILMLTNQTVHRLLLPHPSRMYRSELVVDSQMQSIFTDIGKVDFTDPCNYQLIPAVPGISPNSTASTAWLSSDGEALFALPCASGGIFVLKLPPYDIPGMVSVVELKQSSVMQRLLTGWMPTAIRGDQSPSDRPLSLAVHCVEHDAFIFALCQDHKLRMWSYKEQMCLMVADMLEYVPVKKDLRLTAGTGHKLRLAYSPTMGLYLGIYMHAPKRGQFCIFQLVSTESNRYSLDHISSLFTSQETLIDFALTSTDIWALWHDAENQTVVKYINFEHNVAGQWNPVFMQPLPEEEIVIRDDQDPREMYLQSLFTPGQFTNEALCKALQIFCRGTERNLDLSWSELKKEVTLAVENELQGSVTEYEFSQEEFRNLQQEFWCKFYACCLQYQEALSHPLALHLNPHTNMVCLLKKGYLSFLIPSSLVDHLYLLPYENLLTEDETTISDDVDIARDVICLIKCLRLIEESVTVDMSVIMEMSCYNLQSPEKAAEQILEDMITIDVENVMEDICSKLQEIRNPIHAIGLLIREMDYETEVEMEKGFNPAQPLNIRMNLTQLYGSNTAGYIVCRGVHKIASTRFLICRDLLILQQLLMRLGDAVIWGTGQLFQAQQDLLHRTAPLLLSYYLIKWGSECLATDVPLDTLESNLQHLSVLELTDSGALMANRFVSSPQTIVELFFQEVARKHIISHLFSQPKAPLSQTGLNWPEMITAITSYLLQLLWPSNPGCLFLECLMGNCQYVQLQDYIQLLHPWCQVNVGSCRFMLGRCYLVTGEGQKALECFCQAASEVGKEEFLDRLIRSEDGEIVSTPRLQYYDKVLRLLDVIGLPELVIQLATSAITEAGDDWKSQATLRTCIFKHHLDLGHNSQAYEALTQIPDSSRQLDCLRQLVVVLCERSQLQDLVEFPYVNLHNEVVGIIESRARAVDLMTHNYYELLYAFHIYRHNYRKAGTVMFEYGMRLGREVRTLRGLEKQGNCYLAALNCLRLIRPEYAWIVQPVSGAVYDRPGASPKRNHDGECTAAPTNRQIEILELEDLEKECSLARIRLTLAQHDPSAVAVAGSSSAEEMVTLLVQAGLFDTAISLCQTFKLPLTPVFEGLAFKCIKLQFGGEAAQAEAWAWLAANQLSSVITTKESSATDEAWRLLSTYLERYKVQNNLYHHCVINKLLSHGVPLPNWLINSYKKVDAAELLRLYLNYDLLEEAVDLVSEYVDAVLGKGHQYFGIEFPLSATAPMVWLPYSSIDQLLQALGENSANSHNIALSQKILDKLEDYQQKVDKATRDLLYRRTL
UniProt Q96CV9: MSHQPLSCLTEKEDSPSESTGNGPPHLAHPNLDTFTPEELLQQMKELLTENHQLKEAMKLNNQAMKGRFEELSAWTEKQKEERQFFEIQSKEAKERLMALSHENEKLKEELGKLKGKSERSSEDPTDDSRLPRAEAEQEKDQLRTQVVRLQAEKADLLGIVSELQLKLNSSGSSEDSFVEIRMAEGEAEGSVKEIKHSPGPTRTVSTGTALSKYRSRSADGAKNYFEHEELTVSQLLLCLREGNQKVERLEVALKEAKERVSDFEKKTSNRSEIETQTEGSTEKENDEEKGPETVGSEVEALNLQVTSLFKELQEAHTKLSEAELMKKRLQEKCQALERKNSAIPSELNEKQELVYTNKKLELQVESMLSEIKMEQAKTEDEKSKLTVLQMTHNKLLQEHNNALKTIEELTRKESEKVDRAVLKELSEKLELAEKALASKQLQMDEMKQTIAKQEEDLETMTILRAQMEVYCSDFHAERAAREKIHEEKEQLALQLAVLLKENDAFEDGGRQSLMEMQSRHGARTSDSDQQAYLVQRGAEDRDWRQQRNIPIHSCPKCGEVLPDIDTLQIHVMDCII
UniProt Q01968: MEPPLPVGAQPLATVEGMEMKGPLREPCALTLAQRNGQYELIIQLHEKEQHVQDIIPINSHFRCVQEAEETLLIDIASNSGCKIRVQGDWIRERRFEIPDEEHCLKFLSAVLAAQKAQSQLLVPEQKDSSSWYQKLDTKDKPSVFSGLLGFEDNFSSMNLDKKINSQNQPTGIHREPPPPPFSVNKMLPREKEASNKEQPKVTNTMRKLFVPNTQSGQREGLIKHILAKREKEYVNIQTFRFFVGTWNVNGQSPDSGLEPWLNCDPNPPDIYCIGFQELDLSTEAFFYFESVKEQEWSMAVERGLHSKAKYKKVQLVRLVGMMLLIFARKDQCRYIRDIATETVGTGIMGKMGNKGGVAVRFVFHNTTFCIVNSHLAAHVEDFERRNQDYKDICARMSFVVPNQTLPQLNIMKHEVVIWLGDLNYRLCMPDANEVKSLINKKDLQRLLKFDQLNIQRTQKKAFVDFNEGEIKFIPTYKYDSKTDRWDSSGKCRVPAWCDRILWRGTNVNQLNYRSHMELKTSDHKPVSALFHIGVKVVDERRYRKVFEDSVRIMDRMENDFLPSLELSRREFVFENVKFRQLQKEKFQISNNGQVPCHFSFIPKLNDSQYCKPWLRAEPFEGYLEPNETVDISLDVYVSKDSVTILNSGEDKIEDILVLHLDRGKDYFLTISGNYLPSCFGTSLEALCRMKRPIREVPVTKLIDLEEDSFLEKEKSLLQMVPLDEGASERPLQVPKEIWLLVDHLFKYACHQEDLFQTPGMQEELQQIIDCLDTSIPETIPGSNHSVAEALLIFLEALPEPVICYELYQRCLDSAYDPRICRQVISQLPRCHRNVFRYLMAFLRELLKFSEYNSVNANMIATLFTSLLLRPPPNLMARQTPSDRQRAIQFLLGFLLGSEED
UniProt P24468: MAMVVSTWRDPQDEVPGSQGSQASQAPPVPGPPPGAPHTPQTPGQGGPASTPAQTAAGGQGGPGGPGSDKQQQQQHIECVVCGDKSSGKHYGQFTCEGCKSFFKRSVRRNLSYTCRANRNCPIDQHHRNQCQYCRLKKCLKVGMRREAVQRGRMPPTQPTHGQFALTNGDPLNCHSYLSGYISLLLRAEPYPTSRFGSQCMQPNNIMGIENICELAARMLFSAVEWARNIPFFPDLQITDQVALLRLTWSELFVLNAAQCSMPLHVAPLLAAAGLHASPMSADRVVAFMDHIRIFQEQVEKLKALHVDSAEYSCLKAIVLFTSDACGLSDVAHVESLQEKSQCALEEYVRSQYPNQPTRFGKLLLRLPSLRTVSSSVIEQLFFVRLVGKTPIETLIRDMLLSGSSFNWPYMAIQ
UniProt P04150: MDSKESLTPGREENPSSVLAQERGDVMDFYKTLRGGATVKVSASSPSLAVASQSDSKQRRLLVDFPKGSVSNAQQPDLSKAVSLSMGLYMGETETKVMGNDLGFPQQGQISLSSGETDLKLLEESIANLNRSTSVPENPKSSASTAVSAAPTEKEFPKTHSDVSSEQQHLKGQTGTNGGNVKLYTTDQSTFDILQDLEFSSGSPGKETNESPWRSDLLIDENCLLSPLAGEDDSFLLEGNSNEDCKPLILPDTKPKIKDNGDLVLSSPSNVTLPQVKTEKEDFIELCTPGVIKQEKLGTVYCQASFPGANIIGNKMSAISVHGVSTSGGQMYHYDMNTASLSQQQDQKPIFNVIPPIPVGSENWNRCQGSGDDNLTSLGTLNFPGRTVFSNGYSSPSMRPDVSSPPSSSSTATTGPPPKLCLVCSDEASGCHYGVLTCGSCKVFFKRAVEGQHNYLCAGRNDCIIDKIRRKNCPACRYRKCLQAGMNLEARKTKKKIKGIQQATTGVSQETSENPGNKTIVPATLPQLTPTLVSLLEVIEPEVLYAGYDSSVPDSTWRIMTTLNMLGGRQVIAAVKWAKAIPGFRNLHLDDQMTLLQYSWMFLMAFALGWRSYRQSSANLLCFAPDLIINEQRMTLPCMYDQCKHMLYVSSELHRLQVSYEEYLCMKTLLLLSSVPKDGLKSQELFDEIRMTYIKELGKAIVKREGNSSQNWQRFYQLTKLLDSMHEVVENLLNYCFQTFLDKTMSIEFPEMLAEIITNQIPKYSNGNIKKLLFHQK
UniProt Q02218: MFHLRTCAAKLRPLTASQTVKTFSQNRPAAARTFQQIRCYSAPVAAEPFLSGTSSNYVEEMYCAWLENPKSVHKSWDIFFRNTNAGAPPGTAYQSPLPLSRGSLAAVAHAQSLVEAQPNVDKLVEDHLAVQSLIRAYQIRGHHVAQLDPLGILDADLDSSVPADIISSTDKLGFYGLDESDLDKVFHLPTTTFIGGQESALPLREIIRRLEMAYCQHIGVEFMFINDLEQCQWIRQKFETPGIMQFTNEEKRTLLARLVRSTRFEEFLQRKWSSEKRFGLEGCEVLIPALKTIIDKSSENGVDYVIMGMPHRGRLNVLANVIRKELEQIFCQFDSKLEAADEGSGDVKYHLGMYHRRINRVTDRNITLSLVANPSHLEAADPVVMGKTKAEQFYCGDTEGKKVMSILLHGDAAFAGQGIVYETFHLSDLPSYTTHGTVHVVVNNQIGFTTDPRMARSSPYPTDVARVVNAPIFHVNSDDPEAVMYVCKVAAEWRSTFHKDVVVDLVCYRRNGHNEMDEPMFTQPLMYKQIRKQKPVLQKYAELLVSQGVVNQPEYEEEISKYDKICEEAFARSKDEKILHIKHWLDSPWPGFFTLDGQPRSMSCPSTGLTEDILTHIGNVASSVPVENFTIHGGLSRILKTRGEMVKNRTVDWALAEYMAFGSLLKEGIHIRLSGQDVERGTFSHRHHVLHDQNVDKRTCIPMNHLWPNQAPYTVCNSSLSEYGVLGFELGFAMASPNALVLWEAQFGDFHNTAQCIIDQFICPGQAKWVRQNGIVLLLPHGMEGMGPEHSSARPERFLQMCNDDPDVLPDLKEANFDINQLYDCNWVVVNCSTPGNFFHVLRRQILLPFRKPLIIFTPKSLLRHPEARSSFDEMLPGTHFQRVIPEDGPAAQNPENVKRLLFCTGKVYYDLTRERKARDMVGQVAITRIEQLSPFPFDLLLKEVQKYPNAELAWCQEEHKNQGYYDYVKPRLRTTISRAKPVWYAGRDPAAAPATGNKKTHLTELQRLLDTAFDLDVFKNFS
UniProt Q6ZVK8, 2-37: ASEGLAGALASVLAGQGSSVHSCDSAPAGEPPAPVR

Experiments:
[1] = compound: ClCC(=O)N[C@@H]1CCCc2ccccc12; assay: log2 mean competition ratio of IA-DTB cysteine labelling (DMSO/compound) (log2 ratio); higher = stronger cysteine engagement by compound; details: treatment time: 4 h, cell line lysate: HEK293T
Method: (§1)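 IA-DTB competitive cysteine chemoproteomics in HEK293T RIPA lysate. Lysates were treated with compound 29 or 30 at 50 or 200 µM for 4 h, then IA-DTB (500 µM, 1 h), trypsin-digested, NeutrAvidin-enriched and analysed by diaPASEF. Competition ratio = intensity DMSO / intensity compound (n=4 treated, n=64 DMSO); binding: mean log2 CR ≥ 1 and p ≤ 0.05 plus QC filters. Target is the cysteine site.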

[2] = compound: ClCC(=O)N[C@H]1CCCc2ccccc12; assay: as above; details: treatment time: 4 h, cell line lysate: HEK293T
Method: as §1

| Target | log2 mean competition ratio ([1]; 50 µM) | log2 mean competition ratio ([1]; 200 µM) | log2 mean competition ratio ([2]; 50 µM) | log2 mean competition ratio ([2]; 200 µM) |
| --- | --- | --- | --- | --- |
| NR2F1 C122 | 0.369 | -0.0178 | 0.122 | 0.112 |
| NPRL2 C96 (UniProt Q8WTW4) | 0.101 | -0.0597 | 0.368 | 0.303 |
| NVL C803 (UniProt O15381) | 0.00341 | 0.0483 | 0.501 | 0.0592 |
| OBI1 C65 (UniProt Q5W0B1) | -0.0528 | 0.191 | -0.447 | 0.318 |
| NT5DC1 C119 (UniProt Q5TFE4) | 0.277 | 0.184 | 0.359 | 0.143 |
| NUBP1 C31 (UniProt P53384) | -0.169 | 0.033 | -0.735 | 0.0666 |
| OSBPL9 C147 | 0.0307 | 0.149 | -0.0318 | 0.0426 |
| NSL1 C224 (UniProt Q96IY1) | 0.517 | -0.0518 | 0.315 | -0.0285 |
| NUP54 C180 (UniProt Q7Z3B4) | 0.274 | 0.747 | 0.0592 | 0.336 |
| OBI1 C338 (UniProt Q5W0B1) | -0.156 | 0.291 | -0.0198 | 0.261 |
| NUP88 C561 (UniProt Q99567) | -0.117 | 0.333 | -0.558 | -0.271 |
| NT5C3B C114 (UniProt Q969T7) | -0.0995 | -0.2 | -0.0218 | -0.164 |
| NSMAF C435 (UniProt Q92636) | 0.0112 | -0.0931 | -0.0218 | 0.00105 |
| NRDE2 C1088 (UniProt Q9H7Z3) | 0.0944 | 0.0179 | 0.234 | 0.0883 |
| OGA C896 (UniProt O60502) | 0.451 | 0.109 | 0.0911 | -0.014 |
| OBSL1 C581 (UniProt O75147) | 0.287 | -0.348 | 0.77 | -0.226 |
| OAS3 C850 (UniProt Q9Y6K5) | -0.382 | -0.0642 | -0.246 | -0.329 |
| NPC1 C1261 (UniProt O15118) | -0.0722 | 0.0778 | -0.139 | 0.106 |
| NSD1 C810 (UniProt Q96L73) | 0.485 | 0.438 | 0.141 | 0.227 |
| NUP133 C641 (UniProt Q8WUM0) | -0.0828 | 0.00197 | 0.261 | -0.081 |
| NTMT1 C184 | -0.146 | 0.185 | -0.0815 | 0.377 |
| NXF1 C143 (UniProt Q9UBU9) | 0.819 | 0.546 | -0.0184 | -0.0661 |

| Target | log2 mean competition ratio ([1]; 50 µM) | log2 mean competition ratio ([1]; 200 µM) | log2 mean competition ratio ([2]; 50 µM) | log2 mean competition ratio ([2]; 200 µM) |
| --- | --- | --- | --- | --- |
| NUMA1 C1673 (UniProt Q14980) | -0.173 | -0.126 | -0.143 | 0.173 |
| OSGEPL1 C46 (UniProt Q9H4B0) | -0.0998 | -0.225 | 0.388 | -0.314 |
| NUTF2 C114 (UniProt P61970) | 0.0166 | -0.27 | -0.132 | -0.135 |
| NUP58 C252 (UniProt Q9BVL2) | -0.218 | 0.377 | 0.0172 | -0.0134 |
| NUP50 C181 (UniProt Q9UKX7) | 0.537 | 0.0835 | 0.334 | 0.00288 |
| NSUN5 C41 (UniProt Q96P11) | -0.55 | -0.448 | 0.057 | -0.146 |
| NR2C1 C200 (UniProt P13056) | -0.225 | -0.0702 | -0.171 | 0.156 |
| OGA C631 (UniProt O60502) | 0.196 | -0.00705 | 0.0842 | -0.0629 |
| NUP160 C1042 (UniProt Q12769) | -0.328 | 0.00859 | 0.235 | 0.112 |
| OPTN C472 (UniProt Q96CV9) | -0.2 | -0.000861 | -0.389 | -0.192 |
| OSBPL6 C803 (UniProt Q9BZF3) | -0.0729 | 0.017 | 0.0183 | -0.166 |
| OSBPL1A C520 (UniProt Q9BXW6) | -0.228 | -0.419 | -0.637 | -0.422 |
| OCRL C428 (UniProt Q01968) | -0.0336 | -0.19 | -0.407 | -0.211 |
| NR2F2 C115 (UniProt P24468) | 0.179 | -0.0521 | 0.595 | 0.0292 |
| NR3C1 C457 (UniProt P04150) | 0.146 | 0.126 | 0.0741 | 0.0735 |
| NSD3 C1292 (UniProt Q9BZ95) | -0.0271 | -0.144 | -0.236 | -0.109 |
| OGDH C283 (UniProt Q02218) | -0.00431 | -0.108 | -0.264 | 0.249 |
| NSD1 C1185 (UniProt Q96L73) | -0.0293 | 0.165 | -0.0455 | 0.0766 |
| OPA1 C801 (UniProt O60313) | -0.176 | 0.0411 | -0.533 | -0.0674 |
| NSD2 C207 (UniProt O96028) | -0.0823 | -0.137 | 0.0536 | 0.249 |
| NUDT18 C24 (UniProt Q6ZVK8) | -0.337 | -0.404 | -0.291 | -0.443 |
| OCRL C498 (UniProt Q01968) | -0.126 | -0.0466 | -0.139 | 0.0725 |

Quoted at random: 2 entries already listed

| Target | log2 mean competition ratio ([1]; 50 µM) | log2 mean competition ratio ([1]; 200 µM) | log2 mean competition ratio ([2]; 50 µM) | log2 mean competition ratio ([2]; 200 µM) |
| --- | --- | --- | --- | --- |
| OCRL C498 (UniProt Q01968) | -0.126 | -0.0466 | -0.139 | 0.0725 |
| NUP133 C641 (UniProt Q8WUM0) | -0.0828 | 0.00197 | 0.261 | -0.081 |
